The nature of the series: general procedure: peptide synthesis; PyBOP/DIPEA. The conditions noted are these: late stage modification step.

16 substances from article PMC8072890 (Pharmaceuticals, 2021) can be followed below.

“Eremomycin N-(2-((2,3,4,5,6-pentafluorobenzyl)amino)ethyl)amide” yielded a step yield of 63%. For the same substance, the “final HPLC purity” value (260 nm) is 96.6%.

As to “Eremomycin N-(2-((2-chloro-4-fluorobenzyl)amino)ethyl)amide”, the step yield was 45%. Under “260 nm”, the “final HPLC purity” value came to 97.3%.

With “Eremomycin N-(2-((3,4-dichlorobenzyl)amino)ethyl)amide”, the step yield is on record as 48%. Further, under “260 nm”, the “final HPLC purity” value was found to be 95.7%.

“Eremomycin N-(2-((3-fluorobenzyl)amino)ethyl)amide” had a step yield of 52%. Besides, the “final HPLC purity” value (260 nm) stood at 96.4%.

“Eremomycin N-(2-((2,4-dichlorobenzyl)amino)ethyl)amide” came in with a step yield of 61%. Moreover, where the note is “260 nm”, the “final HPLC purity” value was 97.1%.

In the case of “Eremomycin N-(2-((4-chlorobenzyl)amino)ethyl)amide”, the step yield came to 50%. Also, where the note is “260 nm”, the “final HPLC purity” value was 95.6%.

“Eremomycin N-(2-((4-fluorobenzyl)amino)ethyl)amide” had a step yield of 57%. For the same substance, the “final HPLC purity” value (270 nm) was found to be 96.7%.

With “Eremomycin N-(2-(benzylamino)ethyl)amide”, the step yield amounted to 47%. Where the note is “260 nm”, the “final HPLC purity” value is 96.9%.

On to “Eremomycin N-(2-((4-trifluoromethylbenzyl)amino)ethyl)amide”, for which the step yield came out at 52%. In addition, the “final HPLC purity” value (260 nm) came out at 95.2%.

“Eremomycin N-(2-((2,6-difluorobenzyl)amino)ethyl)amide” had a step yield of 48%. For the same substance, the “final HPLC purity” value (260 nm) turned out to be 95.4%.

As for “Eremomycin N-(2-((2-fluorobenzyl)amino)ethyl)amide”, the step yield came out at 54%. For the same substance, the “final HPLC purity” value (260 nm) came out at 97.6%.

For “Eremomycin N-(2-((4-methylbenzyl)amino)ethyl)amide”, the step yield worked out at 44%. For the same substance, the “final HPLC purity” value (260 nm) was 96.7%.

“Eremomycin N-(2-phenethylamino)ethyl)amide” gave a step yield of 48%. Further, the “final HPLC purity” value (260 nm) is on record as 95.4%.

In turn, “Eremomycin N-(2-((2-fluorobenzyl)amino)propyl)amide” gave a step yield of 58%. The “final HPLC purity” value (260 nm) came to 98.1%.

On to “Eremomycin N-(2-((3,5-difluorobenzyl)amino)ethyl)amide”, for which the step yield is reported as 49%. In addition, the “final HPLC purity” value (260 nm) is 95.3%.

“Eremomycin N-(2-((4-methoxybenzyl)amino)ethyl)amide”: the step yield came to 60%. In addition, the “final HPLC purity” value (260 nm) is 97.2%.
